Assay results published in patent US20240101668A1.
No constants are given. Whether binding was seen depends on the method and setting. Some binding calls cover weakened binding; strength is not graded here.

The chains behind the UniProt entries cited, without tags or fusion partners. Where a name states a change or a piece, a line headed by the entry shows the natural chain unless it says otherwise. A line that says so, or that is headed by a name, gives the form on record, which may keep a tag or linker.
huCLL1-Q244-Avi-Tev-His (Q5QGZ9, form named): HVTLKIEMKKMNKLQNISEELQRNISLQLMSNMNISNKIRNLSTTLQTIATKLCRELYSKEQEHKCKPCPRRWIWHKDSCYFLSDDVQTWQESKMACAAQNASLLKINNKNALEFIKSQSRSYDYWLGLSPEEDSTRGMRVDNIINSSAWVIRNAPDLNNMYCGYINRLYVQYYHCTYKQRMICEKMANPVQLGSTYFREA

Biological target: huCLL1-Q244-Avi-Tev-His (human) (UniProt Q5QGZ9)
Experiment: BLI

binding: binds
B1: Polypeptide No. 87 (scFv, V domains shown)
VH: QVQLVQSGAEVKKPGASVKVSCKASGYSFTNYYIHWVRQAPGQGLEWMGWMNPYTGQTGYAQKFQGRVTMTRDTSTSTVYMELSSLRSEDTAVYYCTTDEETMDFHLWGRGTLVTVSS
VL: DIQMTQSPSSLSASVGDRVTITCZASQSISSYLNWYQQKPGKAPKLLIYDASNLETGVPSRFSGSGSGTDFTLTISSLQPEDFATYYCQQANTFPITFGQGTRLEIKR
